Data: PubChem BioAssay AID330 (DTP/NCI, 2004)
The list does not hold the whole screen: it is rich in T/C values a quarter to a half above the control, in often repeated tests (any T/C) and in doses without a T/C. Other doses and runs of a compound stand elsewhere. T/C: endpoint of the treated group in % of that of the vehicle group. Some doses have a count of surviving animals in place of a T/C: the source files T/C as zero there, which appears to mark a toxic dose or a test without result, not a measured value. Some doses without a T/C left all or most animals alive at the check, yet need not have been tolerated: survival well below the control is almost never listed, so the zero probably covers shortened survival too. Survivors were counted at the toxicity check, usually on the fifth day, unless a day is given; later deaths do not show. Schedules are NCI's codes, read here as Q, the interval in days (D) or hours (H), X, the number of doses. Some entries hold several experiments; their values stand side by side, smallest first. Where survival is the endpoint, this PubChem deposit counts one and a half times the control or more as active, and values a quarter to a half above the control carry no call in these data; other NCI protocols may use other cut-offs. Signs of the kind (2×) stand for listed records that agree. Some T/C values are followed by the survivors on the day toxicity was checked, most often the fifth; without a count, all were alive then.

Test system: P388 leukemia ip, CD2F1 mice, survival T/C
Assay: NCI In Vivo Anticancer Drug Screen. Data for tumor model P388 Leukemia (intraperitoneal) in CD2F1 (CDF1) mice
Conditions: T/C endpoint: median survival time, higher T/C = longer survival
[1] = dose: 200.0 mg/kg/injection, schedule: Q04DX003 (ip), vehicle: saline with Tween-80
[2] = dose: 400.0 mg/kg/injection, schedule: Q04DX003 (ip), vehicle: saline with Tween-80
[3] = dose: 50.0 mg/kg/injection, schedule: Q01DX009 (ip), vehicle: saline
[4] = dose: 100.0 mg/kg/injection, schedule: Q01DX009 (ip), vehicle: saline
[5] = dose: 200.0 mg/kg/injection, schedule: Q01DX009 (ip), vehicle: saline
[6] = dose: 200.0 mg/kg/injection, schedule: Q01DX005 (ip), vehicle: Klucel (hydroxypropylcellulose) (HPC)
[7] = dose: 60.0 mg/kg/injection, schedule: Q01DX005 (ip), vehicle: saline with Tween-80
[8] = dose: 120.0 mg/kg/injection, schedule: Q01DX005 (ip), vehicle: saline with Tween-80
[9] = dose: 240.0 mg/kg/injection, schedule: Q01DX005 (ip), vehicle: saline with Tween-80
[10] = dose: 100.0 mg/kg/injection, schedule: Q01DX009 (ip), vehicle: saline with Tween-80
[11] = dose: 200.0 mg/kg/injection, schedule: Q01DX009 (ip), vehicle: saline with Tween-80
[12] = dose: 200.0 mg/kg/injection, schedule: Q04DX003 (ip), vehicle: Klucel (hydroxypropylcellulose) (HPC)
[13] = dose: 100.0 mg/kg/injection, schedule: Q01DX005 (ip), vehicle: saline with Tween-80
[14] = dose: 200.0 mg/kg/injection, schedule: Q01DX009 (ip), vehicle: Klucel (hydroxypropylcellulose) (HPC)
[15] = dose: 50.0 mg/kg/injection, schedule: Q01DX009 (ip), vehicle: Klucel (hydroxypropylcellulose) (HPC)

What does the source list for `CC(=O)Oc1ccccc1`?
survivor count [1]: 0 of 6; survivor count [2]: 1 of 6

Which results are given for `O=C1N2CCCC2(S)C(=O)N2CCCC12[S-].[Zn]` (stereo not drawn)?
survivor count [3]: 6 of 6; survivor count [4]: 3 of 6; survivor count [5]: 0 of 6

`C1CCN2CC3CC(CN4CCCC[C@@H]34)[C@@H]2C1` was tested. Which survivor count (dose: 50.0 mg/kg/injection, schedule: Q01DX005 (ip), vehicle: Klucel (hydroxypropylcellulose) (HPC)) did it give?
The survivor count was 0 of 6.

And the survivor count (dose: 100.0 mg/kg/injection, schedule: Q01DX005 (ip), vehicle: Klucel (hydroxypropylcellulose) (HPC))?
The survivor count was 0 of 6.

What about the survivor count [6] of the same molecule?
The survivor count was 0 of 6.

Which survivor count [7] does the source give for `O=C(/C=C/c1c[nH]c2ccccc12)c1ccc([N+](=O)[O-])cc1` here?
The survivor count was 6 of 6.

What about the survivor count [8] of the same molecule?
Its survivor count is 6 of 6.

And the survivor count [9]?
Its survivor count is 6 of 6.

With `COc1ccc2sc3c(C)ccc(NCCN(C)C)c3c(=O)c2c1` as the molecule, how does the T/C [10] read?
The T/C was 135 % of control.

What about the survivor count [11] of the same molecule?
Its survivor count is 6 of 6.

How did the T/C [11] turn out when `Cc1ccc(NCCN(C)C)c2c(=O)c3ccc(O)cc3sc12` was run?
The T/C was 126 % of control.

How did the survivor count (dose: 240.0 mg/kg/injection, schedule: Q01DX005 (ip), vehicle: saline) turn out when `CCCCCCc1cc(-c2cc(CCCCCC)nc(N)n2)nc(N)n1` was run?
The survivor count was 3 of 6.

`IC1=CC2CCC(C1)C2` (stereo not drawn) was tested. Which T/C [10] did it give?
Its T/C is 133 % of control.

Which survivor count [11] does the source give for `CC1(C)CC2(C)OC2C2(C1)N=NC(=Nc1ccccc1)O2` (stereo not drawn) here?
The survivor count was 5 of 6.

What about the survivor count (dose: 400.0 mg/kg/injection, schedule: Q01DX009 (ip), vehicle: saline with Tween-80) of the same molecule?
The survivor count was 4 of 6 and 5 of 6.

`CS(=O)(=O)c1nnnn1-c1ccccc1` was tested. Which survivor count (dose: 100.0 mg/kg/injection, schedule: Q04DX003 (ip), vehicle: saline with Tween-80) did it give?
The survivor count was 4 of 6.

What about the survivor count [1] of the same molecule?
Its survivor count is 1 of 6.

And the survivor count [2]?
Its survivor count is 0 of 6.

With `COc1ccc(NC(=O)C#N)cc1` as the molecule, how does the survivor count (dose: 30.0 mg/kg/injection, schedule: Q01DX005 (ip), vehicle: saline with Tween-80) read?
The survivor count was 0 of 6.

And the survivor count [7]?
Its survivor count is 0 of 6.

What about the survivor count [8] of the same molecule?
Its survivor count is 0 of 6.

And the survivor count [9]?
The survivor count was 0 of 6.

With `COc1cc2c(c(OC)c1OC)-c1[nH]ncc1CC2` as the molecule, how does the survivor count [12] read?
Its survivor count is 6 of 6.

With `Nc1cc2nc3ccccc3nc2cc1N` as the molecule, how does the survivor count [13] read?
Its survivor count is 5 of 6.

`COc1ccc(Cc2nc(C)cc3cc(OC)c(OC)cc23)cc1OC` was tested. Which survivor count (dose: 400.0 mg/kg/injection, schedule: Q01DX009 (ip), vehicle: water) did it give?
Its survivor count is 0 of 6.

Which survivor count [12] does the source give for `N#Cc1cccn1OCN1C(=O)c2ccccc2C1=O` here?
The survivor count was 5 of 6.

For `CS(=O)(=O)N1OC1c1ccccc1` (stereo not drawn), which survivor count (dose: 240.0 mg/kg/injection, schedule: Q01DX005 (ip), vehicle: Klucel (hydroxypropylcellulose) (HPC)) is on record?
The survivor count was 4 of 6.

Which survivor count (dose: 1.6 mg/kg/injection, schedule: Q01DX005 (ip), vehicle: saline with Tween-80) does the source give for `O=C1C=CC(=O)c2c(O)ccc(O)c21` here?
Its survivor count is 0 of 5.

And the survivor count (dose: 3.12 mg/kg/injection, schedule: Q01DX005 (ip), vehicle: saline with Tween-80)?
Its survivor count is 1 of 5.

What about the survivor count (dose: 6.25 mg/kg/injection, schedule: Q01DX005 (ip), vehicle: saline with Tween-80) of the same molecule?
Its survivor count is 0 of 5.

And the survivor count (dose: 12.5 mg/kg/injection, schedule: Q01DX005 (ip), vehicle: saline with Tween-80)?
The survivor count was 0 of 5.

What about the survivor count (dose: 50.0 mg/kg/injection, schedule: Q01DX005 (ip), vehicle: saline with Tween-80) of the same molecule?
The survivor count was 0 of 5.

What about the survivor count [13] of the same molecule?
The survivor count was 0 of 5.

What about the survivor count (dose: 200.0 mg/kg/injection, schedule: Q01DX005 (ip), vehicle: saline with Tween-80) of the same molecule?
The survivor count was 0 of 5.

With `CCCCCCCCCSc1nc2ccc(NC(=O)/C=C/C(=O)O)cc2s1` as the molecule, how does the survivor count [14] read?
Its survivor count is 0 of 6.

How did the survivor count [14] turn out when `COc1ccc(CSC(=S)Nc2ccc(Cl)c(Cl)c2)cc1` was run?
Its survivor count is 6 of 6.

And the survivor count (dose: 400.0 mg/kg/injection, schedule: Q01DX009 (ip), vehicle: Klucel (hydroxypropylcellulose) (HPC))?
The survivor count was 3 of 6.

How did the survivor count (dose: 400.0 mg/kg/injection, schedule: Q01DX001 (ip), vehicle: saline) turn out when `CN(C)CCSc1nnc(N)s1` was run?
Its survivor count is 0 of 6.

For `N#CNC1=NC(c2ccccc2)CC=C1` (stereo not drawn), which survivor count [11] is on record?
The survivor count was 3 of 6.

Which T/C (dose: 1.0 mg/kg/injection, schedule: Q01DX009 (ip), vehicle: Klucel (hydroxypropylcellulose) (HPC)) does the source give for `Cc1ccc(NCCN(C)C)c2c(=O)c3cc(O)ccc3sc12` here?
The T/C was 130 % of control.

And the T/C (dose: 2.0 mg/kg/injection, schedule: Q01DX009 (ip), vehicle: Klucel (hydroxypropylcellulose) (HPC))?
The T/C was 139 % of control.

What about the T/C (dose: 2.0 mg/kg/injection, schedule: Q01DX009 (ip), vehicle: saline with Tween-80) of the same molecule?
The T/C was 125 % of control.

What about the T/C (dose: 4.0 mg/kg/injection, schedule: Q01DX009 (ip), vehicle: Klucel (hydroxypropylcellulose) (HPC)) of the same molecule?
The T/C was 141 % of control.

What about the T/C (dose: 4.0 mg/kg/injection, schedule: Q01DX009 (ip), vehicle: saline with Tween-80) of the same molecule?
Its T/C is 125 % of control.

What about the T/C (dose: 8.0 mg/kg/injection, schedule: Q01DX009 (ip), vehicle: saline with Tween-80) of the same molecule?
Its T/C is 136 % of control.

And the survivor count [15]?
Its survivor count is 5 of 5.

And the survivor count (dose: 64.0 mg/kg/injection, schedule: Q01DX009 (ip), vehicle: saline with Tween-80)?
Its survivor count is 5 of 6.

What about the survivor count (dose: 75.0 mg/kg/injection, schedule: Q01DX009 (ip), vehicle: Klucel (hydroxypropylcellulose) (HPC)) of the same molecule?
Its survivor count is 5 of 5.

And the survivor count (dose: 128.0 mg/kg/injection, schedule: Q01DX009 (ip), vehicle: Klucel (hydroxypropylcellulose) (HPC))?
Its survivor count is 5 of 6.

What about the survivor count (dose: 128.0 mg/kg/injection, schedule: Q01DX009 (ip), vehicle: saline with Tween-80) of the same molecule?
Its survivor count is 6 of 6.

And the survivor count [14]?
Its survivor count is 5 of 6.

Which T/C [3] does the source give for `Cn1cnc([N+](=O)[O-])c1Sc1ncn[nH]1` here?
Its T/C is 129 % of control (2×).

And the T/C [4]?
The T/C was 133 % of control [5 of 6 alive].

How did the survivor count (dose: 200.0 mg/kg/injection, schedule: Q04DX002 (ip), vehicle: Klucel (hydroxypropylcellulose) (HPC)) turn out when `O=Cc1c(-c2ccc(Cl)cc2)nc2n1CCS2` was run?
The survivor count was 1 of 6.

For `CC1CC2OC(/C=C/C=C/C=C/C=C\C=C\C(O)=C3/C(=O)C(C(C)C)N(C)C3=O)C(O)C2O1` (stereo not drawn), which survivor count (dose: 5.0 mg/kg/injection, schedule: Q01DX005 (ip), vehicle: saline with Tween-80) is on record?
Its survivor count is 5 of 6.

What about the survivor count (dose: 10.0 mg/kg/injection, schedule: Q01DX005 (ip), vehicle: saline with Tween-80) of the same molecule?
The survivor count was 6 of 6.

What about the survivor count (dose: 20.0 mg/kg/injection, schedule: Q01DX005 (ip), vehicle: saline with Tween-80) of the same molecule?
Its survivor count is 5 of 6.

And the survivor count (dose: 40.0 mg/kg/injection, schedule: Q01DX005 (ip), vehicle: saline with Tween-80)?
Its survivor count is 1 of 6.

How did the survivor count [5] turn out when `COc1cc(C)c(C)cc1C1(c2cc(C)c(C)cc2O)C(=O)c2ccccc2C1=O` was run?
Its survivor count is 5 of 6.

With `COc1ccc(CC2c3cc(OC)c(OC)c(OC)c3CC[N+]2(C)C)cc1Oc1ccc(CC2c3cc4c(c(OC)c3CCN2C)OCO4)cc1` (stereo not drawn) as the molecule, how does the survivor count (dose: 12.5 mg/kg/injection, schedule: Q04DX002 (ip), vehicle: saline) read?
Its survivor count is 1 of 6.

And the survivor count (dose: 100.0 mg/kg/injection, schedule: Q04DX002 (ip), vehicle: saline with Tween-80)?
Its survivor count is 0 of 6.

What about the survivor count (dose: 200.0 mg/kg/injection, schedule: Q04DX002 (ip), vehicle: saline with Tween-80) of the same molecule?
The survivor count was 0 of 6.

And the survivor count (dose: 400.0 mg/kg/injection, schedule: Q04DX002 (ip), vehicle: saline with Tween-80)?
Its survivor count is 0 of 6.

Which survivor count [6] does the source give for `O=C1c2ccccc2C(=O)c2c(NCCCC3CCCN4CCCCC34)cccc21` (stereo not drawn) here?
Its survivor count is 0 of 6.

How did the T/C (dose: 300.0 mg/kg/injection, schedule: Q01DX009 (ip), vehicle: Klucel (hydroxypropylcellulose) (HPC)) turn out when `O=C(/C=C/c1cccc(Cl)c1)c1ccccc1` was run?
Its T/C is 129 % of control.

What does the source list for `CC(F)C(N)C(=O)O` (stereo not drawn)?
T/C (dose: 25.0 mg/kg/injection, schedule: Q01DX009 (ip), vehicle: Klucel (hydroxypropylcellulose) (HPC)): 125 % of control; survivor count [15]: 6 of 6; survivor count (dose: 100.0 mg/kg/injection, schedule: Q01DX009 (ip), vehicle: Klucel (hydroxypropylcellulose) (HPC)): 6 of 6; survivor count [14]: 4 of 6; survivor count [5]: 0 of 6
